Source: the supplement of paper PMC3334620
Whole data set: some 33,000 sequences, median “E-score (-0.5 to 0.5)” near -0.0014, cut for the highest 2% near 0.25. The list shows a part of the results.

Target: T1, Cad1 (UniProt P24813)
T1 sequence: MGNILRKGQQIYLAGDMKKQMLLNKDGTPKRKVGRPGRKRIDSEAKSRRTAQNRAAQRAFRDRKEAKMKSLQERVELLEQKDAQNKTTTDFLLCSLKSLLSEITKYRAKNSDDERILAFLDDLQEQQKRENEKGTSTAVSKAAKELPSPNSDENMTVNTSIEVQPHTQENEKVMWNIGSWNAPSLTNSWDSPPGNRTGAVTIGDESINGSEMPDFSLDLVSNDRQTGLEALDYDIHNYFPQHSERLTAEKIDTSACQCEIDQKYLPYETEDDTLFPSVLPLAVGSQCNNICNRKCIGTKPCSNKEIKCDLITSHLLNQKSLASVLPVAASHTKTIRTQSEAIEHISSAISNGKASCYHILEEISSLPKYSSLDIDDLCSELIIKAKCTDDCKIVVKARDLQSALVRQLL
Experiment: PBM E-score (8-mer binding enrichment) (E-score (-0.5 to 0.5)); higher = stronger / more preferred TF binding
Details: protein concentration: 100 nM; construct: GST-full length
Experimental: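 Universal 'all 10-mer' protein binding microarrays (Agilent AMADID 015681) probed with GST-tagged S. cerevisiae TFs (full-length or DBD) made by in vitro transcription/translation (PURExpress), about 100-200 nM. Bound TF was detected with fluorescent anti-GST. Each ungapped 8-mer (which stands for itself and its reverse complement) is scored by the PBM enrichment score (E-score), a modified Wilcoxon-Mann-Whitney statistic from -0.5 to +0.5, computed with the Universal PBM Analysis Suite. Scale: above 0.35 generally sequence-specific binding.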

Row | Sequence | PBM E-score
1 | CACTGGCA | -0.0733
2 | TCATACAA | 0.0937
3 | CCAGCTCG | 0.00428
4 | ATATTCTG | 0.166
5 | CTATTGAA | 0.0338
6 | ACTTGTCC | 0.0559
7 | ATTACATC | 0.209
8 | ATTAGCGA | 0.0341
9 | CTAAGGTA | 0.0915
10 | AAATGCTA | 0.0591
11 | AACGGGCA | -0.125
12 | AGAATATA | 0.163
13 | AATGCATC | 0.127
14 | GGCCGACC | -0.209
15 | TATGCAAA | 0.00688
16 | ACGATTCA | 0.00026
17 | AGGGTAAT | -0.0176
18 | CGCTCCCC | -0.329
19 | TCCTCAAA | -0.166
20 | ATATATGG | 0.162
21 | ACCATATC | -0.0954
22 | AGGTTAAA | -0.0538
23 | CGAGGGCG | -0.11
24 | ACACAGAC | 0.223
25 | GCAGTTCC | -0.0503

Row | Sequence | PBM E-score
26 | AGTACATA | 0.104
27 | ATTCTCAA | 0.0851
28 | CAGCTTGA | -0.0591
29 | AGTCTAAG | 0.118
30 | CTAGTTGA | 0.144
31 | CCCTGTAA | 0.0594
32 | CCTCGTCA | 0.121
33 | ACTCAGTG | -0.154
34 | AATTAGAG | 0.0346
35 | AAAAAGCT | -0.148
36 | CTCACTAC | 0.126
37 | CTGCTGCA | 0.00759
38 | CGCAGAAC | 0.164
39 | CATTTCGG | -0.16
40 | GAAACACA | 0.148
41 | GACCCATC | -0.134
42 | CAGCGACA | -0.195
43 | CGCGGAAA | 0.073
44 | ACGGATAA | 0.0973
45 | CCACTTCC | 0.0518
46 | AGTTTGAC | 0.0385
47 | ATCAAGAC | 0.128
48 | AACTTTGA | 0.041
49 | AGGAAAGA | -0.168
50 | ACCCGTCG | -0.185

Row | Sequence | PBM E-score
51 | CGCATCTC | -0.014
52 | AGCACTCG | -0.0211
53 | AGTCCTGG | -0.164
54 | CCATCCTC | -0.233
55 | TCCTCGCA | -0.189
56 | CAAAGATG | -0.0448
57 | ATGGAAAG | 0.00711
58 | GCAACCGC | 0.0144
59 | ACGCAAGA | 0.202
60 | GATTGGAA | -0.0305
61 | GATACTAA | 0.115
62 | AAGTCATA | 0.0807
63 | GTCTCACA | -0.103
64 | AGAGGGGA | -0.244
65 | AACCGGCG | 0.145
66 | CCGTTTCA | 0.00431
67 | ACAGGTTG | -0.0536
68 | CCACGCTA | -0.0319
69 | CAGTGTCA | -0.0188
70 | TACATAGA | 0.0928
71 | AGCCTCCG | -0.0822
72 | CTCTACGA | -0.0698
73 | AAGGGACC | -0.0911
74 | AACGAAAT | 0.303
75 | AGGCAACT | 0.0575

Row | Sequence | PBM E-score
76 | TATCCTCA | 0.0395
77 | AGAATGGC | 0.00752
78 | CAACCGAA | 0.168
79 | ACAACACA | 0.0813
80 | GCGGGTAC | 0.0345
81 | ACGGTAAG | 0.00529
82 | ACAGCCAT | -0.0707
83 | AAGAAAGC | -0.0475
84 | AACTCCGT | 0.0805
85 | AGTTCGAT | -0.0629
86 | AATGGGGG | -0.423
87 | CTGGCTCC | -0.25
88 | AGAGCCTC | -0.247
89 | CAGAGTAA | -0.24
90 | ACGGGAAG | -0.148
91 | GTTCCTTA | 0.0781
92 | CAGAGATA | 0.109
93 | AATGCGTC | 0.0515
94 | CGGCTACC | 0.00621
95 | AGAGGCAG | -0.126
96 | AATAGTGA | 0.174
97 | AGCACGTG | 0.179
98 | AGGGAGTG | -0.287
99 | ACTAGCCC | -0.0332
100 | TCATCGCA | 0.0219

Row | Sequence | PBM E-score
101 | CCAGGAAG | -0.131
102 | GCTAGTAC | -0.0457
103 | AACTGTAT | 0.0468
104 | CCTCATAG | -0.0698
105 | ATACGCCG | -0.161
106 | ATACCTAA | 0.227
107 | TATAAATA | 0.25
108 | GGGTTTAC | -0.0872
109 | CTGAGACC | -0.19
110 | GATCTCAA | 0.114
111 | ACTGGCAC | 0.0167
112 | AGTGCCAA | -0.105
113 | GGATGGCC | -0.0942
114 | AGCGAGTA | 0.148
115 | GCTCATGA | 0.0686
116 | GAGGGGTA | -0.148
117 | AGAGCGAA | -0.108
118 | CATTAGAC | -0.187
119 | AAGAAATC | -0.034
120 | GAGAATAA | 0.16
121 | CCCCGTGA | -0.156
122 | CGCAGGTC | -0.188
123 | GGATAAAC | 0.167
124 | AAACTAGC | -0.0196
125 | AAAGCACA | 0.0452

Reformatted: results already given.
Row	Sequence	PBM E-score
108	GGGTTTAC	-0.0872
118	CATTAGAC	-0.187
124	AAACTAGC	-0.0196

Reprinted at random: four entries already listed, in no set order.
Row | Sequence | PBM E-score
14 | GGCCGACC | -0.209
56 | CAAAGATG | -0.0448
75 | AGGCAACT | 0.0575
7 | ATTACATC | 0.209

The listing continues.

Row | Sequence | PBM E-score
126 | GGTTACAA | 0.163
127 | AATACATA | 0.0519
128 | AACGGGCG | 0.0329
129 | AACCTGCA | 0.196
130 | AGCAACAA | 0.221
131 | ACGGTGAT | -0.00573
132 | CAACGCGC | 0.311
133 | AATATCTC | 0.151
134 | ATATTGCG | 0.192
135 | ACTCATTA | 0.109
136 | ACAGAGCA | 0.0563
137 | GTCCTCGA | 0.0464
138 | GCAACCAC | -0.0341
139 | ACCCATTG | -0.193
140 | ACGTTGCC | -0.0546
141 | CTGGTCTC | -0.223
142 | GAACTGAC | 0.027
143 | CCACTAAA | 0.0682
144 | ACAACGCA | 0.0691
145 | AGTTGGAG | -0.0898
146 | CCTAGAAC | 0.0555
147 | ATGGAATA | 0.135
148 | AAAACCAG | 0.0595
149 | CCTATCTA | -0.0911
150 | ATTTGATC | -0.0183

Row | Sequence | PBM E-score
151 | CGCCTCAG | 0.00601
152 | AATACCCC | -0.0618
153 | GATTGGAC | 0.029
154 | ATCCGTCG | 0.115
155 | TAATCCCA | -0.0386
156 | TAAAGAGA | -1e-05
157 | GTCACTCA | -0.0176
158 | CAGGCGGA | 0.0668
159 | GCAGCTCA | -0.101
160 | CAGCGATC | 0.00343
161 | TGATAACA | 0.185
162 | ACTGCGTG | -0.0586
163 | GCAATCTA | -0.062
164 | AACACCGC | 0.00817
165 | AAAATCAA | 0.121
166 | GGAACGCC | -0.0791
167 | ACGGCCTG | 0.0523
168 | CCACCTGA | -0.00302
169 | ATTTGCAA | 0.277
170 | ATCACTAC | -0.0793
171 | TGTCTTAA | 0.0428
172 | AGTTCGGA | -0.0209

From entry 158 as far as 161, as listed above:
Row | Sequence | PBM E-score
158 | CAGGCGGA | 0.0668
159 | GCAGCTCA | -0.101
160 | CAGCGATC | 0.00343
161 | TGATAACA | 0.185
